Patent US12656356B2, “Pregabalin immunoassays” (ARK Diagnostics, Inc., priority 2015, dated 2026)

Assay: Analytical recovery of pregabalin spiked into human urine

## CC(C)C[C@H](CN)CC(=O)O [Pregabalin, (S)-3-(aminomethyl)-5-methylhexanoic acid]
Spiked level 200 ng/mL in human urine
  Mean: 197.9 ng/mL
Spiked level 400 ng/mL in human urine
  Mean: 378.3 ng/mL
Spiked level 800 ng/mL in human urine
  Mean: 778.6 ng/mL
Spiked level 1500 ng/mL in human urine
  Mean: 1361.2 ng/mL
